Values from PubChem BioAssay AID1224826 (NIAID, 2016)
Screen: 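Regulators of Tlr4 signalling leading to Tnf-alpha expression in macrophages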 (primary screen). System: RAW264.7 G9 macrophages from mouse bearing reporters for p65 (GFP) and the Tnf promoter (mCherry). Reagents: siRNA pool against mouse genes, 100 nM. Duration: 16 h of LPS stimulation, after 2 days of siRNA transfection. Treatment: bacterial lipopolysaccharide (Salmonella minnesota R595), 10 ng/ml. Detection: 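Imaged Tnf reporter mCherry in nuclei, minus background, normalised per plate to the median and expressed as robust z-scores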. Scale: Tnf reporter robust z-score: higher = stronger Tnf promoter reporter signal after LPS. Active means: 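a well counts as active at a score of -1.3 or below (Tlr4 knock-down control median) or above 3 (raised signal); controls and wells holding fewer than 50 cells are excluded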. Calls: active = Tnf reporter clearly lowered or raised; inactive = no clear change in Tnf reporter.
This is an unselected part of about 17,000 reagents. In the full data, about 1,110 (6.6%) are marked active. 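Active means lowered or raised reporter signal; replicate intensities are raw and not normalised per plate.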 A number with no mark means an inactive call. Not all columns of the deposit are shown.

After knock-down of Mesp2, the record shows Tnf reporter robust z-score 0.24; fewer than 50 cells in well enough cells in well. With knock-down of Fancg, the record shows Tnf reporter robust z-score -0.01; fewer than 50 cells in well enough cells in well. Against Calb1 the deposit lists Tnf reporter robust z-score 0.31; fewer than 50 cells in well enough cells in well. For Mug2 the deposit lists Tnf reporter robust z-score -1.18; fewer than 50 cells in well enough cells in well. With knock-down of Vps50 the results were Tnf reporter robust z-score 1.4; fewer than 50 cells in well enough cells in well. For H2bc9, the values are Tnf reporter robust z-score -0.83; fewer than 50 cells in well enough cells in well.

With knock-down of 9030612E09Rik the results were fewer than 50 cells in well fewer than 50 cells per well; well left out of calls. Zfp740 gave Tnf reporter robust z-score 0.37; fewer than 50 cells in well enough cells in well. For Dlx1, the values are fewer than 50 cells in well fewer than 50 cells per well; well left out of calls. With knock-down of Spint1 the results were Tnf reporter robust z-score 0.17; fewer than 50 cells in well enough cells in well. Snapc1 showed Tnf reporter robust z-score -0.27; fewer than 50 cells in well enough cells in well. Cul4a gave Tnf reporter robust z-score -1.02; fewer than 50 cells in well enough cells in well.

After knock-down of Sprr2f the results were Tnf reporter robust z-score 0.51; fewer than 50 cells in well enough cells in well. For Hipk2 the deposit lists Tnf reporter robust z-score -1.65 (active); fewer than 50 cells in well enough cells in well. After knock-down of Stat5a, the record shows Tnf reporter robust z-score 0.75; fewer than 50 cells in well enough cells in well. With knock-down of Taf5l, the record shows Tnf reporter robust z-score 0.34; fewer than 50 cells in well enough cells in well. Hmgn3 showed Tnf reporter robust z-score -0.2; fewer than 50 cells in well enough cells in well. With knock-down of Gnpda2 the results were Tnf reporter robust z-score -0.31; fewer than 50 cells in well enough cells in well.

Angel2 gave Tnf reporter robust z-score -0.4; fewer than 50 cells in well enough cells in well. A930033H14Rik showed Tnf reporter robust z-score 3.18 (active); fewer than 50 cells in well enough cells in well. Silencing of Dusp21 resulted in: fewer than 50 cells in well fewer than 50 cells per well; well left out of calls.

2 consecutive reagents from above:
Taf5l | Tnf reporter robust z-score: 0.34; fewer than 50 cells in well: enough cells in well
Hmgn3 | Tnf reporter robust z-score: -0.2; fewer than 50 cells in well: enough cells in well
